Hit rate of the full screen: of about 340,000 compounds, about 6,200 (1.8%) were called active. This list was built around the results that the source calls inconclusive (neither active nor inactive); the mix of calls is not that of the screen. Calls follow the shape of the dose curve; as a rule, active = well fitted activation curve with a large enough effect; inconclusive = small, poorly fitted or top-dose-only effect; inactive = no such curve, though single readings can be large or run the other way. A potency beside an inconclusive call is a rough fit, not a confirmed value.
Assay: A quantitative high throughput screen for small molecules that induce DNA re-replication in SW480 colon adenocarcinoma cells. Also: nearly all actives have a fitted effect of over 55% in size. As to re-replication activation: % of control where 0% means no effect.
Settings: Hoechst DNA content imaging, 48 h; re-replication activation: at 46.1 µM (top of the series) unless noted
How it was run: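 Treated cells incubate 48 hr (37 C, 5% CO2), are stained 40 min with Hoechst, and nuclear fluorescence is enumerated; a rise in nuclei with high DNA signal marks re-replication.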
Potency is read from the fitted curve at half-maximal effect.

Compound | Potency | re-replication activation
Cc1[nH]c2ccccc2c1[C@H]1[C@@H](CC#N)C1(C)C | inconclusive: 6.51 µM [activator, partial curve, poor fit] | 
O=C(Nc1c(C(=O)N2CCN(c3ccccn3)CC2)oc2ccccc12)c1cccc([N+](=O)[O-])c1 |  | inactive: -12.5%
CCOc1ccc2[nH]c(C)c(CN3CCOCC3)c(=O)c2c1 | inconclusive: 20.6 µM [activator, partial curve, poor fit] | 
C=CCn1c(SCC(=O)Nc2cccc3ccccc23)nnc1-c1cnccn1 |  | inactive: -5.31%
COc1ccc(N2CCN(C(=O)c3cc(C4CC4)nn3-c3ccccc3)CC2)cc1 | inconclusive: 29.1 µM [activator, single point] | 
Cc1ccc(NC(=O)C2CCCN(c3ncccn3)C2)cc1F (stereo not given) |  | inactive: 5.35%
CC(=O)Nc1ccc2c3c(cccc13)CC2 |  | inactive: -5.08%
CCCNC(=O)c1ccccc1NC(=O)c1ccc2c(c1)NC(=O)C(C)S2 (stereo not given) | inconclusive: 29.1 µM [activator, single point] | 
O=C(COc1ccc2c(c1)OCO2)Nc1nncs1 |  | inactive: -5.37%
COc1ccc(CCNC(=O)Cc2ccc(NS(=O)(=O)c3ccc(F)cc3)cc2)cc1OC | inconclusive: 29.1 µM [activator, single point] | 
Cc1cc(C(=O)NCCC(c2ccccc2)c2ccccc2)c(C)o1 | inconclusive: 35.5 µM [activator, partial curve, poor fit] | 
Cc1cccc(C)c1NC(=O)CN(C)C(=O)c1cccc(NS(=O)(=O)c2ccccc2)c1 |  | inactive: -73.3%
Cc1sc2ncnc(N3CCN(S(=O)(=O)c4ccc(Br)cc4)CC3)c2c1C |  | inactive: -8.16%
CCOC(=O)Nc1ccc2nc(N3CCCCCC3)sc2c1 | active: 10.3 µM | 
COc1cc(-c2nc3ccc4ccccc4c3c3c2CCC3)cc(OC)c1O | inconclusive: 25.9 µM [activator, single point] | 
O=C(c1cc(-c2ccncc2)nc2ccccc12)N1CCN(c2ccccn2)CC1 | active: 18.4 µM | 
CCN1C(Nc2ccccc2)=NC[C@@H]1C |  | inactive: -0.082%
COc1cccc(CN(C(=O)Cc2c[nH]c3ccccc23)C(C(=O)NC2CCCCC2)c2cccs2)c1 (stereo not given) |  | inactive: -9.78%
COc1ccc(NC(=O)Nc2cccc([N+](=O)[O-])c2)cc1Cl |  | inactive: -1.4%
O=C(COC(=O)C1CCN(S(=O)(=O)c2cccs2)CC1)NCc1ccc(F)cc1 |  | inactive: -4.42%
Cc1nc(Sc2ccc(Cl)cc2)c(C#N)c(C)c1[N+](=O)[O-] | inconclusive: 0.0073 µM [activator, full curve, poor fit] | 
Cc1cc(Br)cc2c(C(=O)NCC3CCCO3)cc(-c3ccccc3)nc12 (stereo not given) | inconclusive: 29.1 µM [activator, single point] | 
O=C(COC(=O)C1COc2ccccc2O1)Nc1cccc(F)c1 (stereo not given) | inconclusive: 14.6 µM [activator, single point] | 
N#Cc1c(N2CCN(C(=O)c3ccccc3Cl)CC2)nc(-c2ccccc2)c2c1CCCC2 |  | inactive: 23.5%

A few values from above.
Under Potency, O=C(c1cc(-c2ccncc2)nc2ccccc12)N1CCN(c2ccccn2)CC1 is listed with active: 18.4 µM
Under re-replication activation, Cc1sc2ncnc(N3CCN(S(=O)(=O)c4ccc(Br)cc4)CC3)c2c1C is listed with inactive: -8.16%

(next part)

Compound | Potency | re-replication activation
COC(=O)c1c(NC(=O)CN2CCC3(O)CCCCC3C2c2ccccc2OC)sc(C)c1C (stereo not given) | inconclusive: 1.16 µM [activator, full curve, poor fit] | 
Cc1cc(C)nc(/N=C(\N)Nc2ccc(C(C)C)cc2)n1 | inconclusive: 0.058 µM [activator, full curve, poor fit] | 
CC(=O)Nc1cc(N2C(=O)CCC2=O)ccc1Cl | inconclusive: 29.1 µM [activator, partial curve, poor fit] | 
CC(C)COc1ccc(-c2nn(-c3ccccc3)cc2C(=O)Nc2nccs2)cc1 | inconclusive: 23.1 µM [activator, single point] | 
Cc1ccc(-n2ncc(C(=O)Nc3cc(Cl)cc(Cl)c3)c2C2CCNCC2)cc1C | active: 4.61 µM | 
CCC(C)N(C(=O)COC(=O)C1CCN(S(=O)(=O)c2ccc(C)c(C)c2)CC1)C1CCS(=O)(=O)C1 (stereo not given) | inconclusive: 9.2 µM [activator, partial curve, poor fit] | 
Cc1cc(C)nc(SCc2nnc(SCC(=O)Nc3ncc(C)s3)n2Cc2ccco2)n1 | inconclusive: 25.9 µM [activator, single point] | 
Cc1ccc(/C=C/C(=O)c2ccc(C)cc2)cc1 | inconclusive: 29.1 µM [activator, single point] | 
CNC(=S)Nc1cccc(C(=O)OC)c1 |  | inactive: -11.8%
O=C(Nc1ccc2c(c1)OCO2)c1cnn2c(C(F)(F)F)cc(-c3ccco3)nc12 |  | inactive: -0.376%
CC(=O)Nc1ccc(S(=O)(=O)NCCC(=O)Nc2ccc(C)c(Cl)c2)cc1 |  | inactive: -73.8%
CC(C)CC(=O)N1CCN(Cc2ccccc2[N+](=O)[O-])CC1 |  | inactive: -0.719%
COCCn1c(C)cc(C(=O)COc2nc3ccccc3nc2C)c1C |  | inactive: 2.88%
COc1cc(/C=N\NC(=O)CC(=O)NCCc2ccccc2)ccc1O | inconclusive: 0.146 µM [activator, full curve, poor fit] | 
C/C=C(\C)C(=O)N1CC2(CC(c3cccc(NC(=O)COc4ccc(Cl)cc4)c3)=NO2)C[C@@H]1C(N)=O (stereo not given in full) |  | inactive: -11.6%
COc1ccc(-c2nnc(NC(=O)c3ccc([N+](=O)[O-])o3)o2)c(OC)c1 | active: 16.4 µM | 
O=C(/C=C/c1ccc([N+](=O)[O-])cc1)Nc1ncc([N+](=O)[O-])s1 | inconclusive: 0.116 µM [activator, full curve, poor fit] | 
Cc1ccc(Cl)cc1N1CCN(C(=O)c2noc(C)c2[N+](=O)[O-])CC1 | inconclusive: 0.82 µM [activator, full curve, poor fit] | 
Cc1ccc(N2C(=NC(=O)c3ccccc3)SC3CS(=O)(=O)CC32)cc1 (stereo not given) | inconclusive: 29.1 µM [activator, single point] | 
Cc1ccc(NC(=O)COC(=O)c2nn(C)c(=O)c3ccccc23)cc1F | inconclusive: 29.1 µM [activator, single point] | 
COC(=O)c1ccccc1-c1ccc(/C=N/Nc2nc(N3CCCC3)nc(N3CCCC3)n2)o1 | inconclusive: 18.4 µM [activator, single point] | 
Cc1cc(C)cc(N(CC(=O)NCC2CCCO2)C(=O)CCC(=O)Nc2nccs2)c1 (stereo not given) | inconclusive: 7.31 µM [activator, partial curve, poor fit] | 
O=C(Nc1nc2cc3c(cc2s1)OCO3)C1CC1 | inconclusive: 18.4 µM [activator, single point] | 
O=C(Nc1nc(-c2ccccc2)ns1)c1cccs1 |  | inactive: -3.36%

Compound | Potency | re-replication activation
COc1cc(CNCc2ccccn2)ccc1OCc1ccc(Cl)cc1Cl | inconclusive: 23.1 µM [activator, single point] | 
Oc1ccc(Br)cc1CNc1cccc2cccnc12 | inconclusive: 29.1 µM [activator, single point] | 
O=C(Nc1ccc2c(c1)OCCO2)c1cnc2ccccn2c1=O |  | inactive: 3.87%
Cc1c(Cl)cccc1NC(=O)Cn1c(CCC(=O)O)ccc1-c1ccccc1 |  | inactive: 3.03%
COc1ccccc1N(C)S(=O)(=O)c1ccc(C(=O)NCC2CCCCC2)cc1 |  | inactive: -11.7%
COc1cc(C(=O)O/N=C(\N)Cc2ccc([N+](=O)[O-])cc2)cc(OC)c1OC | inconclusive: 18.4 µM [activator, single point] | 
c1ccc(Cn2c(SCc3nc4ccccc4s3)nnc2-c2ccco2)cc1 | inconclusive: 32.6 µM [activator, partial curve, poor fit] | 
Cn1nnnc1Sc1ncnc2scc(-c3cc4ccccc4o3)c12 | inconclusive: 3.66 µM [activator, full curve] | 
COc1ccc(N2CCN(C(=O)CCc3ccc(S(=O)(=O)NC(C)(C)C)cc3)CC2)cc1 | inconclusive: 3.66 µM [activator, full curve, poor fit] | 
CCCN1CCc2c(sc(NC(=O)c3ccc(S(=O)(=O)N(C)c4ccccc4)cc3)c2C(=O)NC)C1 | inconclusive: 29.1 µM [activator, single point] | 
COc1ccc(NC(=O)COC(=O)c2ccc(-n3cnnn3)cc2)c([N+](=O)[O-])c1 | inconclusive: 25.9 µM [activator, partial curve, poor fit] | 
CC(C)(C)C(=O)/C(=C/c1ccncc1)n1cncn1 | inconclusive: 23.1 µM [activator, single point] | 
COc1cc(OC)c(C(=O)O/N=C(\N)c2ccccn2)cc1OC |  | inactive: -2.46%
Oc1ccc(/C(Cc2ccccn2)=N\Nc2ccccc2)c(O)c1 | inconclusive: 7.31 µM [activator, partial curve, poor fit] | 
Cc1cc(C)c2nc(SC(C)C#N)cc(C)c2c1 (stereo not given) | inconclusive: 23.1 µM [activator, partial curve, poor fit] | 
CCN1CCN(c2nc(-c3ccccc3)c3ccccc3n2)CC1 | active: 20.6 µM | 
C/C(=N/NC(=O)c1cccs1)c1ccc(N2CCOCC2)cc1 | active: 0.517 µM | 
COc1cc2c(cc1OC)/C(=C/C(=O)c1ccc(F)cc1)NCC2 |  | inactive: -3.87%
Cc1ccc(NC2=C/C(=N/S(=O)(=O)c3cccs3)c3ccccc3C2=O)cc1 | inconclusive: 5.8 µM [activator, full curve] | 
O=C(OCC12CC3CC(CC(C3)C1)C2)c1ccc(NCc2cc(O)ccc2O)cc1 | inconclusive: 29.1 µM [activator, single point] | 
CN(C)CCCNC(=O)/C(=C\c1ccc(-c2cccc([N+](=O)[O-])c2)o1)NC(=O)c1ccccc1 | inconclusive: 14.6 µM [activator, partial curve, poor fit] | 
COc1ccc(N2CC(C(=O)Nc3c4c(nn3-c3ccccc3)CS(=O)(=O)C4)CC2=O)cc1 (stereo not given) | inconclusive: 32.6 µM [activator, single point] | 

Laid out differently: 2 of the compounds above
Cn1nnnc1Sc1ncnc2scc(-c3cc4ccccc4o3)c12
  Potency: inconclusive: 3.66 µM [activator, full curve]
COc1ccc(NC(=O)COC(=O)c2ccc(-n3cnnn3)cc2)c([N+](=O)[O-])c1
  Potency: inconclusive: 25.9 µM [activator, partial curve, poor fit]

Reference: PubChem BioAssay AID624297 (National Center for Advancing Translational Sciences (NCATS), 2012)
